# Data as given in the supplement of paper PMC6411743.
# Chains of the proteins cited; added tags and fusions are not shown. Lines headed by an entry give the natural chain unless they say otherwise; changes in a name come on top.
# UniProt Q9Y2K7: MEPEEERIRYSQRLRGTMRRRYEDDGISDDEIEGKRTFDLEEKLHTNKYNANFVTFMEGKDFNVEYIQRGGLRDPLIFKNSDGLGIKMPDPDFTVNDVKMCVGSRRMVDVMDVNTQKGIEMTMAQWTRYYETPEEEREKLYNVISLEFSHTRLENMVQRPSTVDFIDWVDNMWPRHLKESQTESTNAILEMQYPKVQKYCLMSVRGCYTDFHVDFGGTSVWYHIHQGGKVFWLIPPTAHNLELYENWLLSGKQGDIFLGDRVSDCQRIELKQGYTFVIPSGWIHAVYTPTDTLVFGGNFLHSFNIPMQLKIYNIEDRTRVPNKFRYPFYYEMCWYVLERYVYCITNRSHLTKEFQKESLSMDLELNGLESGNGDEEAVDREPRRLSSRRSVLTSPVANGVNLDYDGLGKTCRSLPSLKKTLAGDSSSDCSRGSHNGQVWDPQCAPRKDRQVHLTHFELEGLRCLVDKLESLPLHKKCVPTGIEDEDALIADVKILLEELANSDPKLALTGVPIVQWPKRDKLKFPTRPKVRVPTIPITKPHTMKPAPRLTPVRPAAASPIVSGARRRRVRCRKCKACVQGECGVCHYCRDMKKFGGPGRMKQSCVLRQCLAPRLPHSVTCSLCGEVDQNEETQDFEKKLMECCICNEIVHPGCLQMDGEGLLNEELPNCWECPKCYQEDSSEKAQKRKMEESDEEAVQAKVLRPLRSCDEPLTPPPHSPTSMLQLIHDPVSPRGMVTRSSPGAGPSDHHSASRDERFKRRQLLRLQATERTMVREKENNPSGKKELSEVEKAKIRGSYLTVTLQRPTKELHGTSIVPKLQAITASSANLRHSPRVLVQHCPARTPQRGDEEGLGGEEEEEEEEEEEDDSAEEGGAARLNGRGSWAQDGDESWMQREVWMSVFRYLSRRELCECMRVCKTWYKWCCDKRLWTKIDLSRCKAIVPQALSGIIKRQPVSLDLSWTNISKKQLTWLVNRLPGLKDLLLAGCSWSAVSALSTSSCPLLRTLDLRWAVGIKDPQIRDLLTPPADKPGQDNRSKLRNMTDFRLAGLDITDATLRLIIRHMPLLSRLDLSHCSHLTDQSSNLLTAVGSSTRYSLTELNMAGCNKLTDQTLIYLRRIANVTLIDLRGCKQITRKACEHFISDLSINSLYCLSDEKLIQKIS
# UniProt Q9BXC9: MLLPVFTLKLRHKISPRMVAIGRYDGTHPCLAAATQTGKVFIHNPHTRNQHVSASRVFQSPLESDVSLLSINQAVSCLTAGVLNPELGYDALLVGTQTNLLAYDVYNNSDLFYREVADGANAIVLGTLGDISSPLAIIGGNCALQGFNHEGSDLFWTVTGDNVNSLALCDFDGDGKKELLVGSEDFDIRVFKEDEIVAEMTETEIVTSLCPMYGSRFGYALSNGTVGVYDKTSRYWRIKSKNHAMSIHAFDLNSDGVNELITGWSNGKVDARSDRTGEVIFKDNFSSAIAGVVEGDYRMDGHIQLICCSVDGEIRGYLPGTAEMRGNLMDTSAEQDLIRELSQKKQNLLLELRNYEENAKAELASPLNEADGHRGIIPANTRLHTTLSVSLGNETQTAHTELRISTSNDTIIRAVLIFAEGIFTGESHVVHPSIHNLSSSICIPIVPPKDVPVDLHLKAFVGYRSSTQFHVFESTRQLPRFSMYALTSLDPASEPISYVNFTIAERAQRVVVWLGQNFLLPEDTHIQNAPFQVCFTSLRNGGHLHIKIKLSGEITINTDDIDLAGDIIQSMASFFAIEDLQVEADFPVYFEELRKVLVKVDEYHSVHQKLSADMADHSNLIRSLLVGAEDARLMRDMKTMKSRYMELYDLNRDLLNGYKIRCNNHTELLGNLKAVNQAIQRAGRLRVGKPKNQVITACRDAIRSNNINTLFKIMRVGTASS
# UniProt Q9BTD8: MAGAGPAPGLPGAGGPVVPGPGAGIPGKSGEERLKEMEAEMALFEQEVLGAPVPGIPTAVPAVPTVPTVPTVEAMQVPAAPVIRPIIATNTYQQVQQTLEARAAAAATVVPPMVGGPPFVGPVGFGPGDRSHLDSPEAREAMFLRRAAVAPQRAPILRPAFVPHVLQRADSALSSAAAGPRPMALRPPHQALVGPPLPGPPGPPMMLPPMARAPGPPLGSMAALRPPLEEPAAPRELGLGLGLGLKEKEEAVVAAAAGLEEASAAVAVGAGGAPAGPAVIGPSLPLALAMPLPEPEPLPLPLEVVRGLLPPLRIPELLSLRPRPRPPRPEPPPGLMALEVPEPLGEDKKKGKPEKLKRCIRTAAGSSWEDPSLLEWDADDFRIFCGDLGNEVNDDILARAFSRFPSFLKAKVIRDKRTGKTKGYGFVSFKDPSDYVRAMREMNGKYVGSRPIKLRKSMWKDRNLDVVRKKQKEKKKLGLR
# UniProt Q9UHR5: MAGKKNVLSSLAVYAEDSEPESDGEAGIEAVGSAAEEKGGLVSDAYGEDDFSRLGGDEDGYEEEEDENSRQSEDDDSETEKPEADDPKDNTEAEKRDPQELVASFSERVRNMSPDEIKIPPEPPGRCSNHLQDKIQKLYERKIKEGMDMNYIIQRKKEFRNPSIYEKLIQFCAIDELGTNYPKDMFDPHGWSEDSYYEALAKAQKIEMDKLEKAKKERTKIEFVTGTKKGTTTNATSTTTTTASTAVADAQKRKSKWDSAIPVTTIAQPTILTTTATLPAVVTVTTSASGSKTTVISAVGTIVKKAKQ
# UniProt P42356, whole entry, looked up: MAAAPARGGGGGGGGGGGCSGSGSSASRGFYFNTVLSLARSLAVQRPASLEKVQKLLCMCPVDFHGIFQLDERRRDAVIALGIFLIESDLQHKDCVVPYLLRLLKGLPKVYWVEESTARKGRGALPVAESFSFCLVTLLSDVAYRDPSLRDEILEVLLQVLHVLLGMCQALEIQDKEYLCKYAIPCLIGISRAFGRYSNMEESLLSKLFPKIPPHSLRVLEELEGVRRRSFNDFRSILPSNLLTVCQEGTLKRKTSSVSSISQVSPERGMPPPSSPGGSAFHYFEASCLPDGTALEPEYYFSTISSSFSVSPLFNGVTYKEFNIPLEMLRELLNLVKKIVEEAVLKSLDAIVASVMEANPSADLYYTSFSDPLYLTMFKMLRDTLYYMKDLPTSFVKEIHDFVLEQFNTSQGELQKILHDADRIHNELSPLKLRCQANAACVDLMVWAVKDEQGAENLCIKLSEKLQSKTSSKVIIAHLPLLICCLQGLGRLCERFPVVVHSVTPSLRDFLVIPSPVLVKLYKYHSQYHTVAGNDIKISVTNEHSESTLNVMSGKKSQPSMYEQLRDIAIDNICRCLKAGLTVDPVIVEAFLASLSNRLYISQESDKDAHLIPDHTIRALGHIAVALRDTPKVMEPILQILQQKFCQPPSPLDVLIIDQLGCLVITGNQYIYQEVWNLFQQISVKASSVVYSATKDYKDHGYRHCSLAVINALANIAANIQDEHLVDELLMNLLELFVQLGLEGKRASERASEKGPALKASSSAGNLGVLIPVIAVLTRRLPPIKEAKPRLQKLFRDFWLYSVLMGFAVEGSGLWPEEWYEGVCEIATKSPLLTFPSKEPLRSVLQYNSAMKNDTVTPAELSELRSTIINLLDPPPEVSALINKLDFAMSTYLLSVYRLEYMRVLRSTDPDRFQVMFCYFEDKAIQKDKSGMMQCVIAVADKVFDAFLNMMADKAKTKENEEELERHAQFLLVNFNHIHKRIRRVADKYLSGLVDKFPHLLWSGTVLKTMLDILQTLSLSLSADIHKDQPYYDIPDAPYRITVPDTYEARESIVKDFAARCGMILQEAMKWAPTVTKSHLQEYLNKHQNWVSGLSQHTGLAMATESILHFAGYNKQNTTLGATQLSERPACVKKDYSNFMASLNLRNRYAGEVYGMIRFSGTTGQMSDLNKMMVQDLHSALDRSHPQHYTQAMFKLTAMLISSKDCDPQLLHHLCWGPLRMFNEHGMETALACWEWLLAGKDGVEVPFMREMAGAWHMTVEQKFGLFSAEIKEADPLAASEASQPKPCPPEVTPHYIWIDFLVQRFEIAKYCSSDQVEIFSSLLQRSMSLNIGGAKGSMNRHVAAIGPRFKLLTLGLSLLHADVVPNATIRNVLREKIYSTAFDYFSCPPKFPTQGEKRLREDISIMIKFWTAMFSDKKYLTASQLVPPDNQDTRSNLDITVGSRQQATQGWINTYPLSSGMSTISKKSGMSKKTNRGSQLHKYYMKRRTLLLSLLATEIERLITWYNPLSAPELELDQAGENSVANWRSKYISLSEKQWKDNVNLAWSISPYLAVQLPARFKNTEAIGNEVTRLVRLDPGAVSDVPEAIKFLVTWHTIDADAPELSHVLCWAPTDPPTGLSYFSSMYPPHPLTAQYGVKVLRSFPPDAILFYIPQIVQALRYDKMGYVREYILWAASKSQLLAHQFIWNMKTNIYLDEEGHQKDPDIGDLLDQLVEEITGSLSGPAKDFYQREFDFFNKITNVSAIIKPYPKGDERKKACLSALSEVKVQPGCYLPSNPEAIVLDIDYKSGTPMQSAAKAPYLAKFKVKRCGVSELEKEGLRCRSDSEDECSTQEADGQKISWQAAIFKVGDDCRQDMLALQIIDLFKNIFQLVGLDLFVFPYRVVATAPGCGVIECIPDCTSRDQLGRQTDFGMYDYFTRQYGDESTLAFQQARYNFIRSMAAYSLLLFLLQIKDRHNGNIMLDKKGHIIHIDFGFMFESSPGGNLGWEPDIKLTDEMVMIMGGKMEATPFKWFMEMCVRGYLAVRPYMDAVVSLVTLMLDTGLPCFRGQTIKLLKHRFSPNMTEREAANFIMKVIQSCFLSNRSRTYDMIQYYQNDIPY
# ± gives the standard deviation of the averaged measurements. Some of the results follow.
# Compound: Nc1nc2c(ncn2[C@@H]2O[C@H](COP(=O)(O)OP(=O)(O)OP(=O)(O)O)[C@@H](O)[C@H]2O)c(=O)[nH]1 [guanosine triphosphate]
# Test: NP40-soluble protein abundance relative to vehicle (solubility fold change) (ratio); higher = more soluble protein in presence of GTP
# Procedure: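 Solubility proteome profiling in Jurkat crude lysate. Lysate was treated with Mg-GTP (0.1-10 mM) for 10 min at room temperature and 3 min at 37 °C, then solubilised with 0.8% NP40 and benzonase, followed by ultracentrifugation. Proteins were quantified by TMT10 LC-MS/MS; the value is the NP40-soluble abundance relative to the NP40-processed vehicle, from 3 independent experiments.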
Target,NP40-soluble protein abundance (concentration: 0.1mM),NP40-soluble protein abundance (concentration: 0.5mM),NP40-soluble protein abundance (concentration: 1mM),NP40-soluble protein abundance (concentration: 2mM),NP40-soluble protein abundance (concentration: 4mM),NP40-soluble protein abundance (concentration: 6mM),NP40-soluble protein abundance (concentration: 8mM),NP40-soluble protein abundance (concentration: 10mM)
I3VM54 and related entries (UniProt Q9Y2K7),1.13 ± 0.029,1.09 ± 0.015,1.11 ± 0.011,1.21 ± 0.036,1.29 ± 0.053,1.35 ± 0.047,1.43 ± 0.043,1.503 ± 0.013
H3BRL0 and related entries (UniProt Q9BXC9),1.02 ± 0.14,1.14 ± 0.07,1.08 ± 0.12,1.07 ± 0.17,1.13 ± 0.13,1.08 ± 0.17,1.04 ± 0.15,0.93 ± 0.13
K7EP90 and related entries (UniProt Q9BTD8),1.03 ± 0.096,1.03 ± 0.061,1.12 ± 0.11,1.17 ± 0.11,1.17 ± 0.14,1.16 ± 0.1,1.15 ± 0.12,1.21 ± 0.13
J3QQJ0 and related entries (UniProt Q9UHR5),0.875 ± 0.07,0.884 ± 0.087,0.925 ± 0.075,0.89 ± 0.084,0.858 ± 0.066,0.878 ± 0.047,0.844 ± 0.048,0.895 ± 0.064
J3KN10 and related entries (UniProt P42356),1.135 ± 0.0094,1.21 ± 0.22,1.14 ± 0.16,1.16 ± 0.14,1.15 ± 0.32,1.1 ± 0.11,1.07 ± 0.047,1.14 ± 0.3
